Results are given in words; binding and its absence hold for the method and conditions named. Binding seen in cells or lysates may run through a third protein. Some binding calls cover weakened binding; strength is not graded here. One block for each binder: values may come before it.
What was measured:
[1] = molecular target: RPM1 CC^1–155 (Arabidopsis thaliana (Col-0)) (UniProt Q39214); assay: split reporter; BiFC with cYFP-HA and nYFP-MYC fusions transiently co-expressed in N. benthamiana leaves; YFP imaged by confocal microscopy
[2] = molecular target: PML5 (Potentially Membrane Localized 5) wild-type, full-length (Arabidopsis thaliana (Col-0)) (UniProt O64790); assay: co-IP; differentially tagged full-length PML5 co-expressed in N. benthamiana; extracted 4 h after induction with 20 µM estradiol; precipitated with anti-RFP beads; blots with anti-RFP and anti-HA
[3] = molecular target: PML5 GCC(2,3,4)A (N-myristoylation and S-acylation (PTM) mutant), full-length (Arabidopsis thaliana (Col-0)) (UniProt O64790); assay: as above
[4] = molecular target: PML5 D362V (MHD mutant), full-length (Arabidopsis thaliana (Col-0)) (UniProt O64790); assay: as above
[5] = molecular target: PML5 K74R (P-loop mutant), full-length (Arabidopsis thaliana (Col-0)) (UniProt O64790); assay: as above

B1: RPM1 CC^1–155 (domain or fragment, UniProt Q39214 1-155)
chain: MASATVDFGIGRILSVLENETLLLSGVHGEIDKMKKELLIMKSFLEDTHKHGGNGSTTTTTQLFQTFVANTRDLAYQIEDILDEFGYHIHGYRSCAKIWRAFHFPRYMWARHSIAQKLGMVNVMIQSISDSMKRYYHSENYQAALLPPIDDGDAK
binding [1]: binds

B2: PML5 (Potentially Membrane Localized 5) wild-type, full-length (protein, UniProt O64790 1-762)
chain: MGCCFSVQFSFDDQTLVRIFNFLCGNINRNSFGVEERPTQPTIGQEEMLEKAWNRLMEDRVGIMGLHGMGGVGKTTLFKKIHNKFAKMSSRFDIVIWIVVSKGAKLSKLQEDIAEKLHLCDDLWKNKNESDKATDIHRVLKGKRFVLMLDDIWEKVDLEAIGVPYPSEVNKCKVAFTTRDQKVCGEMGDHKPMQVKCLEPEDAWELFKNKVGDNTLRSDPVIVELAREVAQKCRGLPLALSVIGETMASKTMVQEWEHAIDVLTRSAAEFSNMGNKILPILKYSYDSLGDEHIKSCFLYCALFPEDDEIYNEKLIDYWICEGFIGEDQVIKRARNKGYEMLGTLTLANLLTKVGTEHVVMHDVVREMALWIASDFGKQKENFVVRARVGLHERPEAKDWGAVRRMSLMDNHIEEITCESKCSELTTLFLQSNQLKNLSGEFIRYMQKLVVLDLSYNRDFNKLPEQISGLVSLQFLDLSNTSIKQLPVGLKKLKKLTFLNLAYTVRLCSISGISRLLSLRLLRLLGSKVHGDASVLKELQKLQNLQHLAITLSAELSLNQRLANLISILGIEGFLQKPFDLSFLASMENLSSLWVKNSYFSEIKCRESETASSYLRINPKIPCFTNLSRLGLSKCHSIKDLTWILFAPNLVYLYIEDSREVGEIINKEKATNLTSITPFLKLERLILYNLPKLESIYWSPLHFPRLLIIHVLDCPKLRKLPLNATSVPLVEEFQIRMYPPGLGNELEWEDEDTKNRFVLSIKK
binding [2]: binds

B5: PML5 K74R (P-loop mutant), full-length (protein, UniProt O64790 1-762)
chain: MGCCFSVQFSFDDQTLVRIFNFLCGNINRNSFGVEERPTQPTIGQEEMLEKAWNRLMEDRVGIMGLHGMGGVGRTTLFKKIHNKFAKMSSRFDIVIWIVVSKGAKLSKLQEDIAEKLHLCDDLWKNKNESDKATDIHRVLKGKRFVLMLDDIWEKVDLEAIGVPYPSEVNKCKVAFTTRDQKVCGEMGDHKPMQVKCLEPEDAWELFKNKVGDNTLRSDPVIVELAREVAQKCRGLPLALSVIGETMASKTMVQEWEHAIDVLTRSAAEFSNMGNKILPILKYSYDSLGDEHIKSCFLYCALFPEDDEIYNEKLIDYWICEGFIGEDQVIKRARNKGYEMLGTLTLANLLTKVGTEHVVMHDVVREMALWIASDFGKQKENFVVRARVGLHERPEAKDWGAVRRMSLMDNHIEEITCESKCSELTTLFLQSNQLKNLSGEFIRYMQKLVVLDLSYNRDFNKLPEQISGLVSLQFLDLSNTSIKQLPVGLKKLKKLTFLNLAYTVRLCSISGISRLLSLRLLRLLGSKVHGDASVLKELQKLQNLQHLAITLSAELSLNQRLANLISILGIEGFLQKPFDLSFLASMENLSSLWVKNSYFSEIKCRESETASSYLRINPKIPCFTNLSRLGLSKCHSIKDLTWILFAPNLVYLYIEDSREVGEIINKEKATNLTSITPFLKLERLILYNLPKLESIYWSPLHFPRLLIIHVLDCPKLRKLPLNATSVPLVEEFQIRMYPPGLGNELEWEDEDTKNRFVLSIKK
binding [5]: binds

Other lines, results leading:

binding [3]: binds
B3: PML5 GCC(2,3,4)A (N-myristoylation and S-acylation (PTM) mutant), full-length (protein, UniProt O64790 1-762)
chain: MAAAFSVQFSFDDQTLVRIFNFLCGNINRNSFGVEERPTQPTIGQEEMLEKAWNRLMEDRVGIMGLHGMGGVGKTTLFKKIHNKFAKMSSRFDIVIWIVVSKGAKLSKLQEDIAEKLHLCDDLWKNKNESDKATDIHRVLKGKRFVLMLDDIWEKVDLEAIGVPYPSEVNKCKVAFTTRDQKVCGEMGDHKPMQVKCLEPEDAWELFKNKVGDNTLRSDPVIVELAREVAQKCRGLPLALSVIGETMASKTMVQEWEHAIDVLTRSAAEFSNMGNKILPILKYSYDSLGDEHIKSCFLYCALFPEDDEIYNEKLIDYWICEGFIGEDQVIKRARNKGYEMLGTLTLANLLTKVGTEHVVMHDVVREMALWIASDFGKQKENFVVRARVGLHERPEAKDWGAVRRMSLMDNHIEEITCESKCSELTTLFLQSNQLKNLSGEFIRYMQKLVVLDLSYNRDFNKLPEQISGLVSLQFLDLSNTSIKQLPVGLKKLKKLTFLNLAYTVRLCSISGISRLLSLRLLRLLGSKVHGDASVLKELQKLQNLQHLAITLSAELSLNQRLANLISILGIEGFLQKPFDLSFLASMENLSSLWVKNSYFSEIKCRESETASSYLRINPKIPCFTNLSRLGLSKCHSIKDLTWILFAPNLVYLYIEDSREVGEIINKEKATNLTSITPFLKLERLILYNLPKLESIYWSPLHFPRLLIIHVLDCPKLRKLPLNATSVPLVEEFQIRMYPPGLGNELEWEDEDTKNRFVLSIKK

binding [4]: binds
B4: PML5 D362V (MHD mutant), full-length (protein, UniProt O64790 1-762)
chain: MGCCFSVQFSFDDQTLVRIFNFLCGNINRNSFGVEERPTQPTIGQEEMLEKAWNRLMEDRVGIMGLHGMGGVGKTTLFKKIHNKFAKMSSRFDIVIWIVVSKGAKLSKLQEDIAEKLHLCDDLWKNKNESDKATDIHRVLKGKRFVLMLDDIWEKVDLEAIGVPYPSEVNKCKVAFTTRDQKVCGEMGDHKPMQVKCLEPEDAWELFKNKVGDNTLRSDPVIVELAREVAQKCRGLPLALSVIGETMASKTMVQEWEHAIDVLTRSAAEFSNMGNKILPILKYSYDSLGDEHIKSCFLYCALFPEDDEIYNEKLIDYWICEGFIGEDQVIKRARNKGYEMLGTLTLANLLTKVGTEHVVMHVVVREMALWIASDFGKQKENFVVRARVGLHERPEAKDWGAVRRMSLMDNHIEEITCESKCSELTTLFLQSNQLKNLSGEFIRYMQKLVVLDLSYNRDFNKLPEQISGLVSLQFLDLSNTSIKQLPVGLKKLKKLTFLNLAYTVRLCSISGISRLLSLRLLRLLGSKVHGDASVLKELQKLQNLQHLAITLSAELSLNQRLANLISILGIEGFLQKPFDLSFLASMENLSSLWVKNSYFSEIKCRESETASSYLRINPKIPCFTNLSRLGLSKCHSIKDLTWILFAPNLVYLYIEDSREVGEIINKEKATNLTSITPFLKLERLILYNLPKLESIYWSPLHFPRLLIIHVLDCPKLRKLPLNATSVPLVEEFQIRMYPPGLGNELEWEDEDTKNRFVLSIKK

Reference: paper PMC11467418
